Source: patent publication US10131693B2, “Bipodal-peptide binder” (GWANGJU INSTITUTE OF SCIENCE AND TECHNOLOGY, priority 2008, dated 2018)
Not every detail of the peptide structures is certain; ends, links or a residue may be inferred. Residues, ends and D or L forms follow the SMILES beside them.

Protein sequences, listed by entry. Tags and fused reporters are not part of them. Residues count along the entry.
UniProt P02751, 1271-1359 limits assumed: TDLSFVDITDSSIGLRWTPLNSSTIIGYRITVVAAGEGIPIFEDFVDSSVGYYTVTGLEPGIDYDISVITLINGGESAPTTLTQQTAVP

Target: T1, fibronectin ED-B (Homo sapiens, UniProt P02751)
T1 construct: After transformation of pET28b vector carrying fibronectin ED-B into BL21 cells; His-tag (N); made in house; host or cells: E. coli BL21 (pET28b)
Assay: Specificity ELISA of recombinant phage against 10 proteins (ED-B binder)
Assay type: binding
Conditions: absorbance at 450 nm, other proteins: streptavidin, acetylcholine α1, BSA, VCAM, TNF-α, thrombin, myoglobin, lysozyme, visfatin

## CC[C@H](C)[C@H](NC(=O)CNC(=O)[C@H](CCCCN)NC(=O)[C@H](Cc1c[nH]c2ccccc12)NC(=O)[C@@H](NC(=O)[C@H](Cc1c[nH]c2ccccc12)NC(=O)[C@H](CCCCN)NC(=O)CNC(=O)[C@H](CC(N)=O)NC(=O)[C@H](CCC(=O)O)NC(=O)[C@H](Cc1c[nH]c2ccccc12)NC(=O)[C@@H](NC(=O)[C@H](Cc1c[nH]c2ccccc12)NC(=O)[C@H](CO)NC(=O)CNC(=O)[C@@H](NC(=O)[C@H](C)NC(=O)[C@H](CO)NC(=O)[C@H](CO)NC(=O)[C@H](CS)NC(=O)[C@@H](N)Cc1c[nH]cn1)C(C)C)[C@@H](C)O)[C@@H](C)O)C(=O)N[C@H](C(=O)N[C@@H](CCCNC(=N)N)C(=O)N[C@@H](CC(C)C)C(=O)N[C@@H](CCC(=O)O)C(=O)N[C@@H](CCC(N)=O)C(=O)O)[C@@H](C)CC [peptide 2] (H-HCSSAVGSWTWENGKWTWKGIIRLEQ-OH; N-terminus and C-terminus assumed)
  ELISA absorbance for ED-B relative to that of other proteins: above 30 fold
